Results on 4 substances are retold here after article PMC6995195.

Sequences of proteins named here, by UniProt entry; tags and fusion partners are left off.
UniProt P49915: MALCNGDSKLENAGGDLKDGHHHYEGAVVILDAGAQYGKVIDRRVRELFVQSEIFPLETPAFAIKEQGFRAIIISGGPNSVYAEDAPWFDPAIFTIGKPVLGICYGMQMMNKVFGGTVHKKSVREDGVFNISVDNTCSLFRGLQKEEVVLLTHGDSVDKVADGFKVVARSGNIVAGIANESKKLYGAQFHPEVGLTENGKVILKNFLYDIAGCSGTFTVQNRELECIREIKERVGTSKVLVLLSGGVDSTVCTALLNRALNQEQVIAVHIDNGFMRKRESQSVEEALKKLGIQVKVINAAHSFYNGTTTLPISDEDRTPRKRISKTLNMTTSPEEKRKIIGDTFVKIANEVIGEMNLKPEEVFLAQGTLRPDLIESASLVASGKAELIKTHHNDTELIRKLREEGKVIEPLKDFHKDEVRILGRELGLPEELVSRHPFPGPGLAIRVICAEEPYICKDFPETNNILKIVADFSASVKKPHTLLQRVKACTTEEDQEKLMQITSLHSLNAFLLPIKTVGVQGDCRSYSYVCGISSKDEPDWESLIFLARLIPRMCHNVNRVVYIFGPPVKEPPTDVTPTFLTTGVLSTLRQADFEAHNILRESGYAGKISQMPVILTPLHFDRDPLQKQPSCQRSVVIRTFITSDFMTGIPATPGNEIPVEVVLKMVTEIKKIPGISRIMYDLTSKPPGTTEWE
UniProt Q93009: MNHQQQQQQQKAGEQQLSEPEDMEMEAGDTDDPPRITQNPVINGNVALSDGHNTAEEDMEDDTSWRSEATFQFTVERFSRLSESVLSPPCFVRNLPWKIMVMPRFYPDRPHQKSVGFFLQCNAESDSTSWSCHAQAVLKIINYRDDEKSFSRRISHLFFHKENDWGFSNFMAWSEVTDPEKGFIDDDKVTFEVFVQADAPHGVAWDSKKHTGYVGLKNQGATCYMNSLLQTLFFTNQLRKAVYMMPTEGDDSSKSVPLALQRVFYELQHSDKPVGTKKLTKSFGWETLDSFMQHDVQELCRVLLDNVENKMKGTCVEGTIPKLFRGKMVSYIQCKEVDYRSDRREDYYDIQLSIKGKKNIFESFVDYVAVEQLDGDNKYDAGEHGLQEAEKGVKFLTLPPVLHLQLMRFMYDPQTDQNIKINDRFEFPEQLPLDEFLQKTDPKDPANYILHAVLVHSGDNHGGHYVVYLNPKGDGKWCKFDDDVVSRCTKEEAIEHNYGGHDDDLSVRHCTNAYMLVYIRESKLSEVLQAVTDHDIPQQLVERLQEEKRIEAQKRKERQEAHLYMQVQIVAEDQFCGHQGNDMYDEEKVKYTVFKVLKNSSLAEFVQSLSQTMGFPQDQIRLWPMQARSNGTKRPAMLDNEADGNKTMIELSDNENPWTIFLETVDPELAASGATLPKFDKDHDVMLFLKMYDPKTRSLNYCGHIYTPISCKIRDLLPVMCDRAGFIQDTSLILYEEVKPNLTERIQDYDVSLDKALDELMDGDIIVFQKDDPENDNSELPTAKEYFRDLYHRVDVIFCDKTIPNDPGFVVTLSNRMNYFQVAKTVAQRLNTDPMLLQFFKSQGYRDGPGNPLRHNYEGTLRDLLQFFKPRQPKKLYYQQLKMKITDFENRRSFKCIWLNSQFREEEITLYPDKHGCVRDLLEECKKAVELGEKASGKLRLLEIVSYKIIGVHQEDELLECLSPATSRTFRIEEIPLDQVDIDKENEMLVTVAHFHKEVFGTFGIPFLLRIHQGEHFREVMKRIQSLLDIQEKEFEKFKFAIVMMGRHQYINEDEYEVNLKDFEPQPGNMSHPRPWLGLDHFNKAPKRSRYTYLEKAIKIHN

No constants are given. Whether binding was seen depends on the method and setting. In cells and extracts the contact can be indirect. Some results given as binding are weak or reduced against the parent protein; the word gives no strength. For some of these results: Tags and fused reporters may be left off the sequences shown.

Test [1] concerns the target T1, SERPINB5–HA (serpin family B member 5, HA-tagged) (UniProt P36952).
T1 sequence: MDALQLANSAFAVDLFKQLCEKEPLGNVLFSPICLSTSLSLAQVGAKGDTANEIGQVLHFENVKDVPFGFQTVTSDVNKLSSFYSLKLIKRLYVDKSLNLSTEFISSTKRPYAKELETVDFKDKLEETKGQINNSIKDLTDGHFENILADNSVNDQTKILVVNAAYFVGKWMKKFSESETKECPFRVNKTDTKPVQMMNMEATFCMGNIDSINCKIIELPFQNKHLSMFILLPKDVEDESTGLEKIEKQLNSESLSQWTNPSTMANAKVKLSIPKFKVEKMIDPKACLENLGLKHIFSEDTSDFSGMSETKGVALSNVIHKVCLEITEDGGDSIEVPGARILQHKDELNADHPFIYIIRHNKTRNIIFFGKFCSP
As to the kind of experiment: co-IP; NPC cells (HONE1) with ectopic expression of SERPINB5, TRIM21 or GMPS, MG132 10 μM for 24 h; lysate incubated with tag antibody (anti-FLAG, anti-MYC or anti-HA) at 4 °C overnight, protein A/G agarose, western blot; cells with or without X-ray radiation (6 Gy); some panels in TRIM21 LOF or SERPINB5 LOF (CRISPR knockout) cells.

Test [2] addresses GMPS–FLAG (guanine monophosphate synthase, FLAG-tagged) (UniProt P49915). The test is described as above.

Turning to “GMPS (guanine monophosphate synthase), endogenous (from UniProt P49915 1-693)”, the binding entry in test [1] was “binds”.

“GMPS–FLAG (guanine monophosphate synthase, FLAG-tagged) (from UniProt P49915 1-693)”: the binding result in test [1] is on record as “binds”.

On to “TP53, endogenous (from UniProt P04637 1-393)”, for which the binding entry in test [2] is given as “binds”.

For “USP7, endogenous (from UniProt Q93009 1-1102)”, the binding entry in test [2] was “binds”.
